Assay results published in the supplement of paper PMC12873370.
“And” between values parts separate entries of the source, which are not always exact repeats. Equal values may be shown once. The list shows a part of the results. Single values are uncertain, as repeats are few or missing.

What follows are molecules tested on PREPP (mouse prostate epithelium Trp53/Pten KO) (assay: cell viability relative to untreated (fraction); higher = less growth inhibition). Details: 5 µM; 3 days.

| SMILES | cell viability |
| --- | --- |
| CC(=O)c1c(O)cc(O)cc1O | 0.895 |
| O=C(O)CCCCCCCCCCCCCCC(=O)O | 0.659 |
| O=c1cc(-c2ccc(O[C@@H]3O[C@H](CO)[C@@H](O)[C@H](O)[C@H]3O)cc2)oc2cc(O)c([C@@H]3O[C@H](CO)[C@@H](O)[C@H](O)[C@H]3O[C@@H]3OC[C@H](O)[C@H](O)[C@H]3O)c(O)c12 | 0.909 |
| CCN(CC)CC#CCOC(=O)C(O)(c1ccccc1)C1CCCCC1 (stereo unspecified) | 0.994 |
| OCCc1ccc(O)c(O)c1 | 1.01 |
| N=C(NCCCCCCNC(=N)NC(=N)Nc1ccc(Cl)cc1)NC(=N)Nc1ccc(Cl)cc1 | 0.384 |
| CC(C)(C)[C@H]1CC[C@H](CC2=C(O)C(=O)c3ccccc3C2=O)CC1 | 0.943 |
| CCn1cc(C(=O)O)c(=O)c2cc(F)c(N3CCNCC3)nc21 | 1.02 |
| Nc1ncnc2c1ncn2[C@@H]1O[C@H](CO)[C@@H](O)[C@@H]1O | 1.12 and 1.07 |
| CC(C)C[C@H](NP(=O)(O)O[C@@H]1O[C@@H](C)[C@H](O)[C@@H](O)[C@H]1O)C(=O)N[C@@H](Cc1c[nH]c2ccccc12)C(=O)O | 1.08 |
| O=[N+]([O-])c1ccc(O)cc1 | 0.877 |
| CSC[C@H](N)C(=O)O | 1.28 |
| CCCSc1ccc2[nH]c(NC(=O)OC)nc2c1 | 0.692 |
| CN(C)c1ccc(O)c2c1C[C@H]1C[C@H]3[C@H](N(C)C)C(O)=C(C(N)=O)C(=O)[C@@]3(O)C(O)=C1C2=O | 1.05 |
| Oc1ccc2ccccc2c1 | 0.954 |
| C[C@@H]1O[C@@H](OC[C@H]2O[C@@H](OCCc3ccc(O)c(O)c3)[C@H](O)[C@@H](O)[C@@H]2OC(=O)/C=C/c2ccc(O)c(O)c2)[C@H](O)[C@H](O)[C@H]1O | 0.762 |

Reformatted: 2 of the compounds above
CSC[C@H](N)C(=O)O
  cell viability: 1.28
CCCSc1ccc2[nH]c(NC(=O)OC)nc2c1
  cell viability: 0.692
